Measurements reported in PMC10411464.
Results are given in words; binding and its absence hold for the method and conditions named. In cells and extracts the contact can be indirect. A yes stands for co-enrichment or nearness to the bait. Other partners may have been found. Tags and fused reporters may be left off the sequences shown.

Amino acid sequences for entries named in this document (tags omitted).
UniProt P01100: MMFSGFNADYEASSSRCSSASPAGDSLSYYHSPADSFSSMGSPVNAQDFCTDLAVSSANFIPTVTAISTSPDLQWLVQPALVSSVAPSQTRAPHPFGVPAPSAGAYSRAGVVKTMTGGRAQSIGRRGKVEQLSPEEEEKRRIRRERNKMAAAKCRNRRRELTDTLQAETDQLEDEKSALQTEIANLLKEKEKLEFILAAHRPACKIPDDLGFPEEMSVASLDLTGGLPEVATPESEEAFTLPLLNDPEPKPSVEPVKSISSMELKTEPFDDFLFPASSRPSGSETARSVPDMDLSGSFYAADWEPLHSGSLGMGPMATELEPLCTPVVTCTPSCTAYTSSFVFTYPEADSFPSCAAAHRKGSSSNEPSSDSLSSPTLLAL
UniProt Q9BZ95: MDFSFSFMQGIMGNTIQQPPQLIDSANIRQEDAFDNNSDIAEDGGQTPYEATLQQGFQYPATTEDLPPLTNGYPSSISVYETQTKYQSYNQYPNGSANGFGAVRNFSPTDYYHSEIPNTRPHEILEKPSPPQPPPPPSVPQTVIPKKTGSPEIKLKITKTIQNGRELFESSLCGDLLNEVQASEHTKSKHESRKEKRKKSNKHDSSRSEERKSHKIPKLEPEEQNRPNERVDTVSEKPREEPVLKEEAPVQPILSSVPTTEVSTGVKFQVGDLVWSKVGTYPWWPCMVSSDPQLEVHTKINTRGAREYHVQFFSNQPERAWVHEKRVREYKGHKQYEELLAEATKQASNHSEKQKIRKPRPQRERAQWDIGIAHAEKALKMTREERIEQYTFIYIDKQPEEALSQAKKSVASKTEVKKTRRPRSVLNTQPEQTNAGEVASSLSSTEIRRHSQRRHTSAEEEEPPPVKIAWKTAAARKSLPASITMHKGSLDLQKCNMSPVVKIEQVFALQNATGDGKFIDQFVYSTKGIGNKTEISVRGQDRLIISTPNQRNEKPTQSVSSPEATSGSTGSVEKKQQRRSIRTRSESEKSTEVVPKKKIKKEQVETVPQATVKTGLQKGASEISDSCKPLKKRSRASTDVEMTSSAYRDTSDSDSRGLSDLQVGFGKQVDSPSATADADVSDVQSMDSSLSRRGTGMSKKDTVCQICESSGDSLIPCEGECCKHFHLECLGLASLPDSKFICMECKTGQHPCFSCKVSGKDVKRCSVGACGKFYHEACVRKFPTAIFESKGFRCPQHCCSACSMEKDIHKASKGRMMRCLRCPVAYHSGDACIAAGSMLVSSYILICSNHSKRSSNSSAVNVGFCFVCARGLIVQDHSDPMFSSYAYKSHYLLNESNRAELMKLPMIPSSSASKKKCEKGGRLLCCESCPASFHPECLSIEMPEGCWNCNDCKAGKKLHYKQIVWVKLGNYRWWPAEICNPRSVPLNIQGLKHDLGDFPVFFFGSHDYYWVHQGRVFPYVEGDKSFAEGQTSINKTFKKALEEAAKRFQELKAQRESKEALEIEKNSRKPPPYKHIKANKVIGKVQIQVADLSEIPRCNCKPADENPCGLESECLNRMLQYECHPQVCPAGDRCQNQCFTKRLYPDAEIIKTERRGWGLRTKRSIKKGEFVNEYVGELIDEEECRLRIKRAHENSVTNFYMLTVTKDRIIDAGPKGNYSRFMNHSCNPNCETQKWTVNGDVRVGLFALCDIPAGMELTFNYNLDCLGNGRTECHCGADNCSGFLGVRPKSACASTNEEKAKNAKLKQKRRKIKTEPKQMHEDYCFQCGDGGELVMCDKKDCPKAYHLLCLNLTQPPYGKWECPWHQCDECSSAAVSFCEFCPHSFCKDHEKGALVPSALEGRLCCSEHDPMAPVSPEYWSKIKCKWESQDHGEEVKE
UniProt O15047: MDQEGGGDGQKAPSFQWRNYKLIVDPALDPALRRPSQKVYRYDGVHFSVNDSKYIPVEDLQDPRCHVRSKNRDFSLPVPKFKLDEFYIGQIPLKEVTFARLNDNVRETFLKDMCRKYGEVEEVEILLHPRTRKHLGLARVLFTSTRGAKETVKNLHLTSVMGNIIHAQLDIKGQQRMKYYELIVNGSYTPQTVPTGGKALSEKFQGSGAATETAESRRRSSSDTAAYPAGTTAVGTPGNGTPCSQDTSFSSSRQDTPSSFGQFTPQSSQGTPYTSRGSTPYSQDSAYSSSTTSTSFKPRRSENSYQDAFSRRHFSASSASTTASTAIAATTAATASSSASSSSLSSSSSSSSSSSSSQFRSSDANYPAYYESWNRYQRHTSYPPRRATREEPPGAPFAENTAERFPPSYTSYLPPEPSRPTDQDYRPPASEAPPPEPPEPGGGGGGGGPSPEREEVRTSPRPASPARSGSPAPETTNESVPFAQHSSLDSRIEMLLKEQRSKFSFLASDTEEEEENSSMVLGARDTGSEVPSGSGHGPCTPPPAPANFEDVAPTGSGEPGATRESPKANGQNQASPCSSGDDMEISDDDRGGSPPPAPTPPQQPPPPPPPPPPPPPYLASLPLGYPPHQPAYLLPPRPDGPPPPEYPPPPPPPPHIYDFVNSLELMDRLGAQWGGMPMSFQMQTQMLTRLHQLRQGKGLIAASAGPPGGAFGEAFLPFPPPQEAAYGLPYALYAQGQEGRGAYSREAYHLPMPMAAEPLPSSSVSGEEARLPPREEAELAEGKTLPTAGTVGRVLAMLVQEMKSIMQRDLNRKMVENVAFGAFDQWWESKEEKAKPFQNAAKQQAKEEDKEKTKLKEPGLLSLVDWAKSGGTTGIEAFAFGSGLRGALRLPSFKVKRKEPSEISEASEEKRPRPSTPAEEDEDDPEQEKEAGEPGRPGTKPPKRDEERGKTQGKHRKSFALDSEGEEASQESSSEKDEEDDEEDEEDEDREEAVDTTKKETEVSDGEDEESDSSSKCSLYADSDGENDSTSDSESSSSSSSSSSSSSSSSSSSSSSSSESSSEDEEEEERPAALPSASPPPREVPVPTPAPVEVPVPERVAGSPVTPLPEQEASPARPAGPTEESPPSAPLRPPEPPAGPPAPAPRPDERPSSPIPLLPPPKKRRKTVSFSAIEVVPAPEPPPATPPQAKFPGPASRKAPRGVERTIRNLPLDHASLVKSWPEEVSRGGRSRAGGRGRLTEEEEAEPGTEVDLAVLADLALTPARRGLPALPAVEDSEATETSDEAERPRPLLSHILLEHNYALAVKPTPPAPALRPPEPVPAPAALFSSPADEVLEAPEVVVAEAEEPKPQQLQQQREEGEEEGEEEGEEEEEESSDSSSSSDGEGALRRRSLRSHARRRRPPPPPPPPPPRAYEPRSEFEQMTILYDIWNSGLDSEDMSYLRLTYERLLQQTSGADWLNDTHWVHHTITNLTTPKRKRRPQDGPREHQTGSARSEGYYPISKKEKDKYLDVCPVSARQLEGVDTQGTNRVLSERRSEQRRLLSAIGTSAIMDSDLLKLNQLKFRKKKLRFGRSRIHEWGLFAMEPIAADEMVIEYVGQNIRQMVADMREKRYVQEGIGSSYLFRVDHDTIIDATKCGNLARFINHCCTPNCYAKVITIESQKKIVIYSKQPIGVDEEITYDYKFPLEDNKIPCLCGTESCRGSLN
UniProt Q96KQ7: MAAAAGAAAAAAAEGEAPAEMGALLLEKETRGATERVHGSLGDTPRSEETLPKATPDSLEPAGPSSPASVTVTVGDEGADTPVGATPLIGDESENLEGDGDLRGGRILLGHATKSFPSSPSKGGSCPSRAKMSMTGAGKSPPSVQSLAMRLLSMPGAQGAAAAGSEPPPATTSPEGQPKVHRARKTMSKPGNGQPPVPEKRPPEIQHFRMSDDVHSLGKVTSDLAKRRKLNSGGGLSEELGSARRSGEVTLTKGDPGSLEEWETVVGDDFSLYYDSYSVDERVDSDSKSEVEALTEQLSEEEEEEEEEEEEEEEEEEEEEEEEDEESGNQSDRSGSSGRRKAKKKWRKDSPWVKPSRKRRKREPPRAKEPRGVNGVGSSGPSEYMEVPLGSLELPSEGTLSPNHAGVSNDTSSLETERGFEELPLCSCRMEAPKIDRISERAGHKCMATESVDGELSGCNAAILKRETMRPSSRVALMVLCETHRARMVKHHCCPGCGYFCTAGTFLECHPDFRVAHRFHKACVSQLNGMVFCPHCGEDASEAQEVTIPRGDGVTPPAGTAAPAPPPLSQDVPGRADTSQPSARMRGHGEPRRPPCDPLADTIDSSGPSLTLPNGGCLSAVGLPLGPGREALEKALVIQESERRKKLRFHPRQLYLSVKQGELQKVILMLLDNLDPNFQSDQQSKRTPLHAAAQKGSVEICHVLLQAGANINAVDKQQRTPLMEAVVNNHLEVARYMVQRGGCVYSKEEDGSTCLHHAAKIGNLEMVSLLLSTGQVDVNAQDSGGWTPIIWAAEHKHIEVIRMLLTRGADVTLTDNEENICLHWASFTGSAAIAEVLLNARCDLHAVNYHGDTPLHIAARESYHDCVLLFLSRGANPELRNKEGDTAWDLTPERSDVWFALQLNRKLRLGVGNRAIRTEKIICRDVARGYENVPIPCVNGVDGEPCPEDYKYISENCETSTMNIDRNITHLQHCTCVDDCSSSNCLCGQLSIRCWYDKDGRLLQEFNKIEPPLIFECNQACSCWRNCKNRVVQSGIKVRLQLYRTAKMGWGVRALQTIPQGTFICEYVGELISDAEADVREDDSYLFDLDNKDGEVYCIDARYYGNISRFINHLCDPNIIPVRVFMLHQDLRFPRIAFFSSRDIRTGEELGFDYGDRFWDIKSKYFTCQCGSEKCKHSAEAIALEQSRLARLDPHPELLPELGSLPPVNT
UniProt O14744: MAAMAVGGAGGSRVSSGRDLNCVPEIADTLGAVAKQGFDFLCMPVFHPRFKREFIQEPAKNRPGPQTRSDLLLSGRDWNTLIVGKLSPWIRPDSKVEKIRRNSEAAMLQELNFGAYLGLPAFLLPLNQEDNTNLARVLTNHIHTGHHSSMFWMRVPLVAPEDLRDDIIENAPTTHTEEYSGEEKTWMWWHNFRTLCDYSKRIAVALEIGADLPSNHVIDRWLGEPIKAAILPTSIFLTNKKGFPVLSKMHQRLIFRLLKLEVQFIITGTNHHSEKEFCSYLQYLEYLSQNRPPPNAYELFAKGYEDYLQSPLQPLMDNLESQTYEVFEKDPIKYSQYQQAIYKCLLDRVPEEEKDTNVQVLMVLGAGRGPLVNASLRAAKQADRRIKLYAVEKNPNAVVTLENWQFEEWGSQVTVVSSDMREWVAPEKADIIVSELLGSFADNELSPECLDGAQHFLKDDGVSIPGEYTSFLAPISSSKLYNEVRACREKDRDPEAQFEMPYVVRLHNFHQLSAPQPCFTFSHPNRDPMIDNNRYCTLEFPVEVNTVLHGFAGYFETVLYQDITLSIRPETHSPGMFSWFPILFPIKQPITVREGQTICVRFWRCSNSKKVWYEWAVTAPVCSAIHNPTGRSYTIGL

B1: Histone-lysine N-methyltransferase SMYD3 (enzyme, UniProt Q9H7B4-1 1-428)
chain: MEPLKVEKFATAKRGNGLRAVTPLRPGELLFRSDPLAYTVCKGSRGVVCDRCLLGKEKLMRCSQCRVAKYCSAKCQKKAWPDHKRECKCLKSCKPRYPPDSVRLLGRVVFKLMDGAPSESEKLYSFYDLESNINKLTEDKKEGLRQLVMTFQHFMREEIQDASQLPPAFDLFEAFAKVICNSFTICNAEMQEVGVGLYPSISLLNHSCDPNCSIVFNGPHLLLRAVRDIEVGEELTICYLDMLMTSEERRKQLRDQYCFECDCFRCQTQDKDADMLTGDEQVWKEVQESLKKIEELKAHWKWEQVLAMCQAIISSNSERLPDINIYQLKVLDCAMDACINLGLLEEALFYGTRTMEPYRIFFPGSHPVRGVQVMKVGKLQLHQGMFPQAMKNLRLAFDIMRVTHGREHSLIEDLILLLEECDANIRAS
B2: Methyltransferase-like protein 13 (enzyme, UniProt Q8N6R0-5 1-699)
chain: MNLLPKSSREFGSVDYWEKFFQQRGKKAFEWYGTYLELCGVLHKYIKPREKVLVIGCGNSELSEQLYDVGYRDIVNIDISEVVIKQMKECNATRRPQMSFLKMDMTQMEFPDASFQVVLDKGTLDAVLTDEEEKTLQQVDRMLAEVGRVLQVGGRYLCISLAQAHILKKAVGHFSREGWMVRVHQVANSQDQVLEAEPQFSLPVFAFIMTKFRPVPGSALQIFELCAQEQRKPVRLESAERLAEAVQERQQYAWLCSQLRRKARLGSVSLDLCDGDTGEPRYTLHVVDSPTVKPSRDNHFAIFIIPQGRETEWLFGMDEGRKQLAASAGFRRLITVALHRGQQYESMDHIQAELSARVMELAPAGMPTQQQVPFLSVGGDIGVRTVQHQDCSPLSGDYVIEDVQGDDKRYFRRLIFLSNRNVVQSEARLLKDVSHKAQKKRKKDRKKQRPADAEDLPAAPGQSIDKSYLCCEHHKAMIAGLALLRNPELLLEIPLALLVVGLGGGSLPLFVHDHFPKSCIDAVEIDPSMLEVATQWFGFSQSDRMKVHIADGLDYIASLAGGGEARPCYDVIMFDVDSKDPTLGMSCPPPAFVEQSFLQKVKSILTPEGVFILNLVCRDLGLKDSVLAGLKAVFPLLYVRRIEGEVNEILFCQLHPEQKLATPELLETAQALERTLRKPGRGWDDTYVLSDMLKTVKIV

Molecular target: Myc-c-Fos (human) (UniProt P01100)
Assay: affinity purification with mass spectrometry; anti-Myc immunoprecipitate from Myc-c-Fos-overexpressing cells; SDS-PAGE, in-gel trypsin digestion, SCX LC with mass spectrometry

binding, binds:
Histone-lysine N-methyltransferase NSD3 (from UniProt Q9BZ95 1-1437) (enzyme)
Histone-lysine N-methyltransferase SETD1A (from UniProt O15047 1-1707) (enzyme)
Histone-lysine N-methyltransferase EHMT2 (from UniProt Q96KQ7 1-1210) (enzyme)
Protein arginine N-methyltransferase 5 (from UniProt O14744 1-637) (enzyme)
Histone-lysine N-methyltransferase NSD2 (from UniProt O96028-1 1-1365) (enzyme)
B1
B2
